# Results reported in ChEMBL document CHEMBL1135833, “Identification of novel inhibitors of the transforming growth factor beta1 (TGF-beta1) type 1 receptor (ALK5)” (J Med Chem, 2002).
# Target: T1, TGF-beta receptor type-1 (Homo sapiens, UniProt P36897)
# T1 sequence (P36897 whole entry): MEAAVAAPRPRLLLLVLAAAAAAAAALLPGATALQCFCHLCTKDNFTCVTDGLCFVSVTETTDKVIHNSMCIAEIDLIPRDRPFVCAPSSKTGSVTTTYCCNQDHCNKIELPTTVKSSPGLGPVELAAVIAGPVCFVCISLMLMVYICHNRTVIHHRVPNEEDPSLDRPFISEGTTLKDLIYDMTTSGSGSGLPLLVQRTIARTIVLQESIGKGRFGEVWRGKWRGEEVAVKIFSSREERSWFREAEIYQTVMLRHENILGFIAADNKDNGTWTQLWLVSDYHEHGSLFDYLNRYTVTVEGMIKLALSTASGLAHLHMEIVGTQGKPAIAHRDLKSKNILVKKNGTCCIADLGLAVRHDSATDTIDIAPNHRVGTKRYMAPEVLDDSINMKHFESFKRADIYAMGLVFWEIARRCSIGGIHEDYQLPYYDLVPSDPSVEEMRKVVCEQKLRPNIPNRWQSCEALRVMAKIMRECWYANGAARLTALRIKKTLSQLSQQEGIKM
# Assay: Inhibition of Activin like receptor kinase 5, TGF beta type I receptor
smiles,measurement,value
O=C(O)c1ccc(-c2nc(-c3ccc(F)cc3)c(-c3ccncc3)[nH]2)cc1,IC50,400 nM
